In US10881645B2, “Methods for controlling blood pressure and reducing dyspnea in heart failure” (Chiesi Farmaceutici S.p.A., priority 2012, dated 2021):
At least one compound was matched to its structure with a doubt left.

Tests used:
[1] = test system: AHF patients with SBP of ≥160 mmHg; test: Dyspnea assessment by 100 mm VAS, VMAC scale and PDA; assay type: in vivo, human; settings: FIG. 2D; compared with clevidipine
Protocol: Dyspnea was assessed by a 100 mm VAS, in which a score of 0 was “no dyspnea” and a score of 100 represented “worst possible dyspnea.” Dyspnea was evaluated immediately prior to study drug administration, and at 15, 30, 45, 60, 120, 360 and 720 minutes afterward. In addition, the Vasodilation in the Management of Acute Congestive Heart Failure (VMAC) scale, a relative 7 point Likert score, and the Provocative Dyspnea Assessment (PDA) (Pang et al, Eur Heart J2008, 29) were both performed in the seated and supine positions and recorded.

[2] = test system: AHF patients with SBP of ≥160 mmHg; test: Randomized open label 13-center trial: blood pressure control, clevidipine vs standard of care; assay type: in vivo, human; settings: FIG. 2B; compared with clevidipine
Protocol: A randomized open label 13-center trial enrolled AHF patients with SBP of ≥160 mmHg, sitting dyspnea score ≥50 on a 100 mm VAS, and a physician's clinical diagnosis of AHF with pulmonary congestion by chest auscultation.
If the target blood pressure range was not reached within 30 minutes, or not maintained thereafter, alternative antihypertensive agents were allowed per physician discretion, with or without continuation of the study drug.
Two populations were analyzed. The “safety” population included all patients receiving any study drug, and was used for all safety analyses.

Q: For `COC(=O)C1=C(C)NC(C)=C(C(=O)OCCN(C)Cc2ccccc2)C1c1cccc([N+](=O)[O-])c1` (centres unmarked) [nicardipine], which “Speed of VAS improvement, SOC subsets” value [1] is on record?
A: Its value is “neither nitroglycerin nor nicardipine improved VAS as quickly as clevidipine”.

Q: What about the “Decrease in SBP over time, SOC subsets” value [2] of the same compound?
A: The value was “reduced SBP similarly to clevidipine”.
